Experimental data as given in PubChem BioAssay AID192 (DTP/NCI, 2004).
The list shows only some results of the screen, not a fair sample: it is rich in T/C values a quarter to a half above the control, in often repeated tests (any T/C) and in doses without a T/C. Further doses and runs are listed elsewhere. T/C gives the treated animals as a percentage of the vehicle group. Some entries give survivors of the animals treated and no T/C: the source files T/C as zero there, which appears to mark a toxic dose or a test without result, not a measured value. Some survivor counts are full or nearly so, which does not show that the dose was tolerated: the source hardly ever lists a survival T/C far under the control, and the zero likely stands for such cases as well. Counts of survivors are from the toxicity check (mostly the fifth day) where no day follows; animals may have died later. Schedule codes are those of the source, taken here to give the interval after Q, in days (D) or hours (H), and the number of doses after X. Some doses were run more than once; the values are given in rising order. Where survival is the endpoint, the PubChem record calls one and a half times the control and up active, and a quarter to a half above the control has no call in these data; cut-offs in other NCI protocols can differ. Some T/C values are followed by the survivors on the day toxicity was checked, most often the fifth; where none is given, no animal had died by that day.

System: BDF1 mice, B16 melanoma ip, median survival T/C
Assay: NCI In Vivo Anticancer Drug Screen. Data for tumor model B16 Melanoma (intraperitoneal) in B6D2F1 (BDF1) mice
Conditions: T/C endpoint: median survival time, schedule: Q01DX009 (ip), higher T/C = longer survival
Summary of the method: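 Transplantable tumor model; survival or tumor size measured; reported as T/C, treated over vehicle control.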

[1] = dose: 4.0 mg/kg/injection, vehicle: saline with Tween-80
[2] = dose: 8.0 mg/kg/injection, vehicle: saline with Tween-80
[3] = dose: 10.0 mg/kg/injection, vehicle: Klucel (hydroxypropylcellulose) (HPC)
[4] = dose: 16.0 mg/kg/injection, vehicle: saline with Tween-80
[5] = dose: 400.0 mg/kg/injection, vehicle: saline with Tween-80
[6] = dose: 100.0 mg/kg/injection, vehicle: Klucel (hydroxypropylcellulose) (HPC)
[7] = dose: 200.0 mg/kg/injection, vehicle: Klucel (hydroxypropylcellulose) (HPC)
[8] = dose: 400.0 mg/kg/injection, vehicle: Klucel (hydroxypropylcellulose) (HPC)
[9] = dose: 50.0 mg/kg/injection, vehicle: saline
[10] = dose: 100.0 mg/kg/injection, vehicle: saline
[11] = dose: 200.0 mg/kg/injection, vehicle: saline with Tween-80
[12] = dose: 50.0 mg/kg/injection, vehicle: saline with Tween-80
[13] = dose: 100.0 mg/kg/injection, vehicle: saline with Tween-80

Compound: [Cl][Pt+2][Cl].[NH-]C1CCC1.[NH-]C1CCC1
- T/C [1]: 128 % of control
- survivor count (dose: 5.0 mg/kg/injection, vehicle: Klucel (hydroxypropylcellulose) (HPC)): 10 of 10
- T/C [2]: 147 % of control
- T/C [3]: 130 % of control [9 of 10 alive]
- survivor count [3]: 10 of 10
- survivor count [4]: 10 of 10 on day 6
- survivor count (dose: 20.0 mg/kg/injection, vehicle: Klucel (hydroxypropylcellulose) (HPC)): 10 of 10
- survivor count (dose: 40.0 mg/kg/injection, vehicle: Klucel (hydroxypropylcellulose) (HPC)): 10 of 10
- survivor count (dose: 80.0 mg/kg/injection, vehicle: Klucel (hydroxypropylcellulose) (HPC)): 9 of 10

Compound: COc1cc2c(ccc3c4cc(OC)c(OC)cc4c[n+](C)c23)cc1O
- survivor count [5]: 6 of 10

Compound: CN1CCN(Cc2nc3cccc4c3c([n+]2[O-])-c2ccccc2-4)CC1
- survivor count [5]: 3 of 10

Compound: Cc1cccc(C)c1NS(=O)(=O)c1ccccc1
- survivor count [6]: 10 of 10

Compound: Cc1ccc(NC(=O)Nc2cccc3ccccc23)cc1Cl
- survivor count (dose: 50.0 mg/kg/injection, vehicle: Klucel (hydroxypropylcellulose) (HPC)): 10 of 10
- survivor count [6]: 10 of 10
- survivor count [7]: 10 of 10
- survivor count [8]: 10 of 10

Compound: CN(C)N=Nc1c(Cl)cccc1Cl
- survivor count (dose: 75.0 mg/kg/injection, vehicle: Klucel (hydroxypropylcellulose) (HPC)): 10 of 10
- survivor count (dose: 150.0 mg/kg/injection, vehicle: Klucel (hydroxypropylcellulose) (HPC)): 9 of 10
- survivor count (dose: 300.0 mg/kg/injection, vehicle: Klucel (hydroxypropylcellulose) (HPC)): 8 of 10

Compound: [N-]=[N+]=CC(=O)CCC(N)C(=O)O (stereo not drawn)
- survivor count (dose: 0.2 mg/kg/injection, vehicle: saline): 10 of 10
- survivor count (dose: 0.25 mg/kg/injection, vehicle: saline with Tween-80): 6 of 6
- survivor count (dose: 0.25 mg/kg/injection, vehicle: saline): 6 of 6
- survivor count (dose: 0.39 mg/kg/injection, vehicle: saline): 10 of 10
- survivor count (dose: 0.5 mg/kg/injection, vehicle: saline): 6 of 6
- survivor count (dose: 0.78 mg/kg/injection, vehicle: saline): 10 of 10
- survivor count (dose: 1.0 mg/kg/injection, vehicle: saline): 6 of 6
- survivor count (dose: 1.56 mg/kg/injection, vehicle: saline): 6 of 10
- survivor count (dose: 3.12 mg/kg/injection, vehicle: saline): 7 of 10 and 9 of 10
- survivor count (dose: 6.25 mg/kg/injection, vehicle: saline): 1 of 10 and 5 of 10
- survivor count (dose: 12.5 mg/kg/injection, vehicle: saline): 1 of 10
- survivor count (dose: 25.0 mg/kg/injection, vehicle: saline): 0 of 10 and 1 of 10
- survivor count [9]: 0 of 10
- survivor count [10]: 0 of 10
- survivor count (dose: 50.0 micrograms/kg/injection, vehicle: saline): 10 of 10
- survivor count (dose: 90.0 micrograms/kg/injection, vehicle: saline): 10 of 10
- survivor count (dose: 100.0 micrograms/kg/injection, vehicle: saline): 10 of 10
- survivor count (dose: 187.0 micrograms/kg/injection, vehicle: saline): 10 of 10
- survivor count (dose: 375.0 micrograms/kg/injection, vehicle: saline): 9 of 10
- survivor count (dose: 750.0 micrograms/kg/injection, vehicle: saline): 10 of 10
- survivor count (dose: 1500.0 micrograms/kg/injection, vehicle: saline): 5 of 10
- survivor count (dose: 3000.0 micrograms/kg/injection, vehicle: saline): 0 of 10

Compound: [Br][Ga]([Br])[Br]
- survivor count [10]: 10 of 10

Compound: C1CCN(CCC2CCNCC2)C1
- survivor count [10]: 10 of 10

Compound: COc1ccccc1N1CCN(CCc2c[nH]c3cc4c(cc23)OCO4)CC1
- survivor count (dose: 3.12 mg/kg/injection, vehicle: Klucel (hydroxypropylcellulose) (HPC)): 10 of 10
- survivor count (dose: 12.5 mg/kg/injection, vehicle: Klucel (hydroxypropylcellulose) (HPC)): 10 of 10
- survivor count (dose: 25.0 mg/kg/injection, vehicle: Klucel (hydroxypropylcellulose) (HPC)): 0 of 10

Compound: N=C(N)c1ccc(OCCCOc2ccc(C(=N)N)cc2Br)c(Br)c1
- survivor count [9]: 3 of 10 and 5 of 10

Compound: CNC(=O)Nc1cccc(C(F)(F)F)c1
- survivor count [7]: 10 of 10
- survivor count [8]: 7 of 10

Compound: CCC(=O)O[C@H]1CC[C@H]2[C@@H]3[C@@H](C)CC4=CC(=O)CC[C@]4(C)[C@H]3CC[C@]12C
- survivor count [11]: 10 of 10
- survivor count [5]: 10 of 10

Compound: CCN(CC)CCCC(C)Nc1c2ccc(Cl)cc2nc2cc(Cl)ccc12 (stereo not drawn)
- survivor count [6]: 7 of 10

Compound: COC(=O)c1cc(Cl)ccc1OCC(=O)Nc1ccc([N+](=O)[O-])cc1
- survivor count [7]: 9 of 10

Compound: CCN(CC)C(=O)c1ccc(C(Cl)(Cl)Cl)cc1
- survivor count [12]: 10 of 10
- survivor count [13]: 9 of 10
- survivor count [11]: 1 of 10

Compound: CC(=O)Nc1ccn(C2OC(CO)C(O)C2O)c(=O)n1 (stereo not drawn)
- survivor count [13]: 9 of 10

Compound: CCN(C(=O)Nc1ccccc1)c1ccccc1C
- survivor count [13]: 10 of 10
- survivor count [11]: 9 of 10
- survivor count [5]: 9 of 10

Compound: CCO/C=C1\SC(=S)N(c2ccc(OCC)cc2)C1=O
- survivor count [8]: 10 of 10

Compound: Cc1cccc(NC(=O)Nc2ccccc2)c1C
- survivor count [7]: 8 of 10
- survivor count [8]: 9 of 10

Compound: CS(=O)(=O)c1cc(C(F)(F)F)cc([N+](=O)[O-])c1Cl
- survivor count [11]: 0 of 6

Compound: Clc1ccc2c(c1)C([P+](c1ccccc1)(c1ccccc1)c1ccccc1)c1cc(Cl)cc(Cl)c1-2 (stereo not drawn)
- survivor count (dose: 800.0 mg/kg/injection, vehicle: saline with Tween-80): 5 of 6

Compound: CCO/C=C1\SC(=S)N(c2ccco2)C1=O
- survivor count (dose: 200.0 mg/kg/injection, vehicle: saline): 4 of 10

Compound: COc1cc2cc[n+](C)cc2cc1OC
- survivor count (dose: 100.0 mg/kg/injection, vehicle: water): 10 of 10

Compound: CCOC(=O)C(Cl)CCl (stereo not drawn)
- survivor count [7]: 6 of 9

Compound: CC(Cc1ccccc1)NN (stereo not drawn)
- survivor count (dose: 15.62 mg/kg/injection, vehicle: saline): 10 of 10

Compound: Clc1ccccc1N1CCN(CCCN2CCN(c3ccccc3Cl)CC2)CC1
- survivor count (dose: 25.0 mg/kg/injection, vehicle: saline with Tween-80): 10 of 10
- survivor count [12]: 10 of 10
- survivor count [13]: 10 of 10

Compound: Nc1nc(=S)c2[nH]cnc2[nH]1
- T/C (dose: 1.0 mg/kg/injection, vehicle: saline sonified): 137 % of control
- survivor count (dose: 4.0 mg/kg/injection, vehicle: saline sonified): 6 of 6
- survivor count [1]: 6 of 6
- survivor count (dose: 4.0 mg/kg/injection, vehicle: suspension in saline): 10 of 10
- survivor count [2]: 6 of 6
- survivor count [4]: 6 of 6
